This is one part of the list. The main result of the screen is listed elsewhere. These columns were measured beside it and carry no call. The list favours compounds with an active or inconclusive main result. Potencies come from curve fits of mixed quality, noted in brackets.
Test: S16 Schwann cell PMP22 intronic element beta-lactamase assay (AID 624044)
Settings: S16 rat Schwann cells, PMP22 element beta-lactamase FRET, 24 h; measured here: 530 nm viability channel
Summary of the method: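 Beta-lactamase reporter under a PMP22 intronic regulatory element in stable S16 rat Schwann cells; 24 h compound exposure. 460 nm blue signal normalized between DMSO (0%) and potassium clavulanate, with 535 nm FRET tracking viability; curves classed by r2 and response.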

| Compound | AC50 |
| --- | --- |
| Cc1cc2nc3c(=O)[nH]c(=O)nc-3n(CC(O)C(O)C(O)COP(=O)(O)O)c2cc1C (centres undefined) | 15800 nM [rising, partial curve] |
| NC(=O)C1CC2(NC(=O)NC2=O)c2cc(F)ccc2O1 (centres undefined) | 2820 nM [falling, full curve] |
| Nc1nc2c(ncn2CCC(CO)CO)c(=O)[nH]1 | 1260 nM [falling, full curve, poor fit] |
| CCC(=O)OC1C(N(C)C)CC(C)O[C@H]1O[C@H]1[C@H](C)[C@@H](O[C@H]2CC(OC)[C@@H](O)C(C)O2)[C@H](C)C(=O)O[C@@H](CC)[C@](C)(O)[C@@H](O)[C@H](C)C(=O)[C@@H](C)C[C@]1(C)O (some centres undefined) | 1410 nM [falling, full curve] |
